Data reported in PubChem BioAssay AID504834 (National Center for Advancing Translational Sciences (NCATS), 2011).
Screen size: about 320,000 compounds; about 22,000 (6.9%) were called active. This list was built around the results that the source calls inconclusive (neither active nor inactive); the mix of calls is not that of the screen. The call rests on the fitted dose curve; in most records, active means well fitted inhibition curve with a large enough effect; inconclusive means small, poorly fitted or top-dose-only effect, or another doubt; inactive means no such curve, though single readings can be large or run the other way. Where the call is inconclusive, the potency comes from a doubtful curve fit.

Experiment: Primary qHTS for delayed death inhibitors of the malarial parasite plastid, 96 hour incubation
Details: P. falciparum luciferase reporter growth; series mostly up to 28.7 µM; activity change, negative = inhibition: at the top concentration
Method in brief: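 Cell-based qHTS: luciferase-tagged P. falciparum in erythrocytes (2% hematocrit, 0.05% parasitemia final) incubated with compounds for 96 hours, 37 C, 5% CO2; luciferase detection reagent then added and luminescence measured.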
On the % scale 0 is the no-effect control and ±100 the full control effect; potency means the concentration at half of the fitted maximal effect.

Row | Compound | activity change, negative = inhibition | Potency
1 | Cc1ccnc(NC(=O)c2cccc(NC(=O)c3ccccc3C)c2)c1 | inactive: 8.35% | –
2 | O=C(Nc1ccccc1)c1cc(S(=O)(=O)N2CCCCC2)ccc1N1CCOCC1 | – | inconclusive: 10.4 µM [inhibitor, single point]
3 | C/C(=N\NC(=O)CNc1ccc(F)cc1)c1cc2ccccc2o1 | – | inconclusive: 13.1 µM [inhibitor, single point]
4 | O=C(Cn1c(SCC(=O)N2CCCc3ccccc32)nc2ccccc21)N1CCCC1 | – | inconclusive: 14.7 µM [inhibitor, partial curve, poor fit]
5 | O=C(Cn1cc(C(F)(F)F)cc(Cl)c1=O)Nc1ccc(N2CCOCC2)cc1 | inactive: 12.9% | –
6 | Cn1c(-c2ccccc2)cnc1NCc1ccc(F)cc1 | inactive: 6.1% | –
7 | CC(C)CC(=O)Nc1nnc(S(=O)(=O)N(C)Cc2ccco2)s1 | inactive: 2.35% | –
8 | COc1ccc(CN2C(=O)C(O)(CC(=O)c3ccc4c(c3)OCO4)c3ccccc32)cc1OC (stereo not drawn) | – | active: 5.86 µM
9 | C=CCn1c(N2CCN(c3ccc(OC)cc3)CC2)nc2c1c(=O)[nH]c(=O)n2C | inactive: 50.6% | –
10 | Cc1ccc(CSCC(=O)N2CCN(c3ccccc3)CC2)cc1 | – | active: 4.15 µM
11 | O=C(Nc1ccc(Cl)c(S(=O)(=O)N2CCCCC2)c1)c1ccco1 | – | inconclusive: 9.28 µM [inhibitor, partial curve, poor fit]
12 | O=C(COC(=O)C1CCCCC1)NCCc1ccccc1 | – | inconclusive: 10.4 µM [inhibitor, single point]
14 | COc1ccc(CC(=O)Nc2ccc(C(=O)NC(C)(C)C)cc2)cc1OC | – | inconclusive: 8.28 µM [inhibitor, single point]
15 | c1ccc2c(CSc3nnc(-c4ccncc4)o3)cccc2c1 | – | inconclusive: 2.33 µM [inhibitor, partial curve, poor fit]
16 | COc1ccc2[nH]c3c(c2c1)CCNC3C (stereo not drawn) | – | active: 9.28 µM
17 | COC(=O)C1=C(C)N(C)C(=O)/C1=C\c1ccco1 | inactive: 21.5% | –
18 | COc1ccccc1OCC(=O)Nc1cc(C)ccc1NC(=O)c1ccco1 | – | active: 10.4 µM
19 | Cn1c(SCc2ccon2)nc2ccccc2c1=O | – | inconclusive: 18.5 µM [inhibitor, single point]
20 | CN(C(=O)COC(=O)CSc1cc(Cl)ccc1Cl)c1c(N)n(Cc2ccccc2)c(=O)[nH]c1=O | inactive: 9.22% | –
21 | COC(=O)C(C)(C)ONC(=O)Nc1ccccc1[N+](=O)[O-] | inactive: 17.6% | –
22 | COc1ccc(NC(=O)CN2CCN(c3c(C)cc(C)cc3C)CC2)cc1 | – | inconclusive: 0.0037 µM [inhibitor, full curve, poor fit]
23 | O=C(NCc1cccc(Cl)c1)C1=CC=CN2CCS(=O)(=O)N=C12 | inactive: -17.2% | –
24 | CCOc1ccccc1NC(=O)c1ccc(Cl)c(NC(=O)CC(c2ccccc2)c2ccccc2)c1 | – | active: 9.28 µM
25 | CC1CCN(C(=O)CSc2nc3c(c(=O)n2C)SC(C)C3)CC1 (stereo not drawn) | – | inconclusive: 18.5 µM [inhibitor, partial curve, poor fit]

Row | Compound | activity change, negative = inhibition | Potency
26 | Cc1cc(C)c(S(=O)(=O)Nc2ccc3c(c2)CCC3)c(C)c1 | – | inconclusive: 10.4 µM [inhibitor, partial curve, poor fit]
27 | O=C(c1cc(COc2ccc(F)cc2Cl)on1)N1CCN(C2CCCCC2)C(=O)C1 | inactive: -3.29% | –
28 | O=C(Cn1nnc2ccccc21)c1ccc(Cl)cc1 | inactive: 33.1% | –
29 | CSc1nc2nc3c(c(=O)n2[nH]1)CCCC3 | inactive: 19% | –
30 | Cc1nnc(SCC(=O)N(CC(C)C)c2c(N)n(CC(C)C)c(=O)[nH]c2=O)n1-c1ccccc1 | – | inconclusive: 0.465 µM [inhibitor, full curve, poor fit]
31 | O=C(CNC(=O)OCc1ccccc1)Nc1ccc(Br)cc1C(=O)c1ccccc1Cl | – | inconclusive: 8.28 µM [inhibitor, partial curve, poor fit]
32 | COc1cc(C2Oc3ccccc3C=C2[N+](=O)[O-])cc(OC)c1OC (stereo not drawn) | – | inconclusive: 13.1 µM [inhibitor, single point]
33 | COc1ccc(NC(=O)c2ccc3c(c2)OCO3)cc1 | – | inconclusive: 6.57 µM [inhibitor, partial curve, poor fit]
34 | CC(C)(C)C(=O)Oc1ccc2cc(-c3ccc4ccccc4n3)c(=O)oc2c1 | inactive: 22.2% | –
35 | CCn1c(SCC(=O)N2c3ccccc3CCc3ccccc32)nnc1-c1ccc(OC)cc1 | – | active: 9.28 µM
36 | Cc1cc(Cl)ccc1OCc1n[nH]c(=S)n1C1CCCCC1 | – | inconclusive: 10.4 µM [inhibitor, single point]
37 | Cc1ccc(OCC(=O)N(Cc2cccc(Cl)c2)C2CCS(=O)(=O)C2)cc1C (stereo not drawn) | – | inconclusive: 6.57 µM [inhibitor, partial curve]
38 | C=CCNC(=O)C1CC2Cn3c(nc4ccccc43)C2N1C (stereo not drawn) | inactive: 16.9% | –
39 | CN1CCN(c2cc3c(cc2F)c(=O)c(C(=O)O)cn3-c2ccc(F)cc2)CC1 | – | active: 6.75 µM
40 | Cc1noc(NS(=O)(=O)c2ccc(NC(=O)C34CC5CC(C3)CC(n3cnc(Br)n3)(C5)C4)cc2)c1C | inactive: -8.42% | –
41 | CC(=O)/C(=N\Nc1ccccc1)Oc1ccc([N+](=O)[O-])cc1 | – | active: 10.4 µM
42 | CCCn1c(/C=N/Nc2nc3ccccc3[nH]2)nc2ccccc21 | – | active: 4.15 µM
43 | N=c1ccn(CC(=O)c2ccc(-c3ccccc3)cc2)cc1 | – | inconclusive: 0.329 µM [inhibitor, full curve, poor fit]
44 | CC(=O)Nc1ccc(CN2CCN(C3CCCC3)C(CCO)C2)cc1 (stereo not drawn) | – | active: 8.28 µM
45 | CC(C(=O)c1cn(C)c2ccccc12)c1ccccc1 (stereo not drawn) | – | inconclusive: 18.5 µM [inhibitor, single point]
46 | CCOC(=O)C1CCN(c2ncnc3c2oc2ccccc23)CC1 | – | active: 11.7 µM
47 | C/C(=N\Nc1ccc2nncn2n1)c1ccccn1 | – | inconclusive: 2.33 µM [inhibitor, partial curve, poor fit]
48 | COc1ccc(NC(c2ccccc2)c2ccncc2)cc1 (stereo not drawn) | inactive: -1.75% | –
49 | COc1ccc(Cc2nnc(NS(=O)(=O)c3ccc(Cl)cc3)s2)cc1OC | inactive: 4.7% | –
50 | COc1ccc(N2CCCn3c2nc2c3c(=O)n(CCc3ccccc3)c(=O)n2C)cc1 | – | inconclusive: 0.657 µM [inhibitor, full curve, poor fit]

Complete entries, looked up by structure:
COc1ccc(NC(=O)c2ccc3c(c2)OCO3)cc1 in the list: Potency: inconclusive: 6.57 µM [inhibitor, partial curve, poor fit]
CN1CCN(c2cc3c(cc2F)c(=O)c(C(=O)O)cn3-c2ccc(F)cc2)CC1 in the list: Potency: active: 6.75 µM
Cc1nnc(SCC(=O)N(CC(C)C)c2c(N)n(CC(C)C)c(=O)[nH]c2=O)n1-c1ccccc1 in the list: Potency: inconclusive: 0.465 µM [inhibitor, full curve, poor fit]
CC(C)(C)C(=O)Oc1ccc2cc(-c3ccc4ccccc4n3)c(=O)oc2c1 in the list: activity change, negative = inhibition: inactive: 22.2%

The list continues:

Row | Compound | activity change, negative = inhibition | Potency
51 | Cc1ccc(OCC(=O)N(C)CC(=O)N(CC(C)C)c2c(N)n(CC(C)C)c(=O)[nH]c2=O)c(C)c1 | – | inconclusive: 10.4 µM [inhibitor, single point]
52 | COc1ccccc1OCC(=O)Nc1nonc1NC(=O)COc1ccccc1OC | – | inconclusive: 10.4 µM [inhibitor, single point]
53 | CCCCc1cc(=O)oc2cc(OCC(=O)NC3CCN(Cc4ccccc4)CC3)ccc12 | – | inconclusive: 2.33 µM [inhibitor, full curve]
54 | Cc1ccc(OCC(=O)NC(C)c2ccccc2)cc1C (stereo not drawn) | – | active: 5.22 µM
55 | COc1ccc(C[C@H]2CN3C(=NC[C@@H]3Cc3ccccc3)N2CCNC(=O)CCC2CCCCC2)cc1 | – | active: 2.94 µM
56 | Cn1c(=O)[nH]c(=O)c2c1nc([N+](=O)[O-])n2Cc1ccccc1 | – | active: 13.1 µM
57 | COC(=O)c1ccc2c(=O)[nH]c(CN3c4ccccc4CC3C)nc2c1 (stereo not drawn) | – | active: 3.29 µM
58 | C=CCn1nnnc1SCC(=O)Nc1cccc(C(F)(F)F)c1 | inactive: -7.16% | –
59 | CCN(C(=O)Cn1cnc2ccccc2c1=O)C1CCS(=O)(=O)C1 (stereo not drawn) | inactive: -11.5% | –
60 | CC[C@@]12C(=O)N(c3cccc(Br)c3)C(=O)N1[C@H](c1ccc(F)cc1)[C@@H]1C(=O)N(C3CCCCC3)C(=O)[C@@H]12 | – | inconclusive: 16.5 µM [inhibitor, single point]
61 | C/C(=N/NC(=O)c1ccc(Br)o1)c1cccc(NC(=O)c2ccc(C)o2)c1 | – | inconclusive: 11.7 µM [inhibitor, single point]
62 | COc1ccc(Br)cc1CN(C)C(C)C(=O)Nc1cccc(C(C)=O)c1 (stereo not drawn) | – | inconclusive: 10.4 µM [inhibitor, single point]
63 | O=C(Nc1ccccc1N1CCCC1)C1CCN(S(=O)(=O)c2ccccc2)CC1 | inactive: -11.7% | –
64 | CN1C(=O)CC(C(=O)O)SC1=Nc1ccc(F)cc1 (stereo not drawn) | – | inconclusive: 14.7 µM [inhibitor, partial curve, poor fit]
65 | Cc1ccc(S(=O)(=O)N2CCN(C(=O)CC(C)n3nc(C)c(Cl)c3C)CC2)cc1C (stereo not drawn) | – | active: 11.7 µM
66 | O=C(CN1CCCC1)Nc1c(Cl)cccc1Cl | inactive: 0.355% | –
67 | CCCSc1nnc(N2C(=O)CC(c3ccsc3)C3=C2CCCC3=O)s1 (stereo not drawn) | – | inconclusive: 13.1 µM [inhibitor, single point]
68 | CCCOc1ccc(C=Nc2ccc(OC)c(S(=O)(=O)N3CCOCC3)c2)c(O)c1 | inactive: 27.5% | –
69 | COc1ccc(CCCc2nnc(SCc3nc4ccccc4c(=O)[nH]3)n2C)c(C)c1 | – | inconclusive: 4.65 µM [inhibitor, partial curve]
70 | O=C(N[C@H]1CCC(=O)N(CCSc2ccc(Br)cc2)CC1)OCc1ccccc1 | – | inconclusive: 0.928 µM [inhibitor, partial curve, poor fit]
71 | O=C(O)C1CC=CCC1C(=O)NC1CCCCC1 (stereo not drawn) | inactive: 38% | –
72 | CCOC(=O)C1=C(C)NC2=C(C(=O)c3ccccc32)C1c1cccc2ccccc12 (stereo not drawn) | – | inconclusive: 13.1 µM [inhibitor, single point]
73 | COc1ccc(S(=O)(=O)N2CCN(c3ccccc3)CC2)cc1 | inactive: 31.5% | –

Reformatted as tab-separated lines: part of the list above
Row	Compound	activity change, negative = inhibition	Potency
51	Cc1ccc(OCC(=O)N(C)CC(=O)N(CC(C)C)c2c(N)n(CC(C)C)c(=O)[nH]c2=O)c(C)c1	–	inconclusive: 10.4 µM [inhibitor, single point]
63	O=C(Nc1ccccc1N1CCCC1)C1CCN(S(=O)(=O)c2ccccc2)CC1	inactive: -11.7%	–
